# From patent US8110577B2, “Histone deacetylase inhibitors” (Queen Mary & Westfield College, priority 2006, dated 2012)
# How the values were obtained:
# Assay type in all cases: cell-based
# CEM (leukaemic) cells = assay: Cell viability / cytotoxic activity, ATP Vialite assay, CEM cells; settings: Homo sapiens, CCRF-CEM
# Protocol: (§1) EC50 values for percentage viability (3-day exposure) were determined using 2 different methods, trypan blue staining and an ATP assay. Trypan blue staining relies on the ability of healthy cells with intact membranes to exclude dyes. As cells start to undergo programmed cell death membrane integrity becomes compromised allowing dye entry. The % cells staining positive for trypan blue relative to the total cell number therefore reflects % cell viability (% viability). Non-viable cells also lose the ability to regenerate ATP. A specific ATP assay procedure using a 96-well plate-based approach (Vialite assay, Cambrex, UK) also measures cell viability, expressed relative to the ATP value in the control (untreated) cell population.
# Effects against viable cell number have been determined using the ATP Vialite kit method (Cambrex, UK).
# [1] = tested on: HCT116 (colorectal cancer) cells; assay: Cell viability, 3-day exposure, HCT116 cells; settings: Homo sapiens, HCT-116, 72 h, 3 day incubation, FIG. 3
# Protocol: as §1
# [2] = tested on: MCF7 (breast cancer) cells; assay: Cell viability, 3-day exposure, MCF7 cells; settings: Homo sapiens, 72 h, 3 day incubation, FIG. 3
# Protocol: as §1
# [3] = tested on: panel of 8 lymphoma cell lines; assay: Cell viability (ATP) in a panel of 8 lymphoma cell lines; settings: ATP endpoint assay, read-out: EC50 values (range over the panel)
# Protocol: as §1
smiles,measurement,setting,value
"O=C(CCCCCCC(=O)Nc1ccccc1)NO [SAHA, suberoylanilide hydroxamic acid, reference compound]",EC50,"CEM (leukaemic) cells; 72 h, CEM cells, 3 day incubation, FIG. 3",1700 nM
same,IC50,"CEM (leukaemic) cells; cytotoxic activity against CEM (leukaemic) cells, viable cell number, ATP Vialite kit, read-out: HDAC inhibitory IC50",1300 ± 290 nM
same,EC50,[1],1000 nM
same,EC50,[2],1900 nM
same,EC50,[3],760 to 1280 nM
